Data reported in publication PMC9712689.

The chains behind the UniProt entries cited, without tags or fusion partners. Where a name states a change or a piece, a line headed by the entry shows the natural chain unless it says otherwise. Residues count along the entry.
UniProt Q9I4G6: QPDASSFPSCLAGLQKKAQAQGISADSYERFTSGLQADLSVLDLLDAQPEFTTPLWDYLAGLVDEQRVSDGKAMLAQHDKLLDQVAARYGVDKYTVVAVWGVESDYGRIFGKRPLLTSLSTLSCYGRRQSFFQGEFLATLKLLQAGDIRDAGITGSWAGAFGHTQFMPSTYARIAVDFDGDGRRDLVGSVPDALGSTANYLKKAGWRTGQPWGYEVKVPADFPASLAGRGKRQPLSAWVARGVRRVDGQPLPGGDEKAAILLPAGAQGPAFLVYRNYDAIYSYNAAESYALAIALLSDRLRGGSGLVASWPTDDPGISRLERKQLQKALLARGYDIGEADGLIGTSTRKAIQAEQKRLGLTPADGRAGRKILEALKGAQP
UniProt Q9HX24: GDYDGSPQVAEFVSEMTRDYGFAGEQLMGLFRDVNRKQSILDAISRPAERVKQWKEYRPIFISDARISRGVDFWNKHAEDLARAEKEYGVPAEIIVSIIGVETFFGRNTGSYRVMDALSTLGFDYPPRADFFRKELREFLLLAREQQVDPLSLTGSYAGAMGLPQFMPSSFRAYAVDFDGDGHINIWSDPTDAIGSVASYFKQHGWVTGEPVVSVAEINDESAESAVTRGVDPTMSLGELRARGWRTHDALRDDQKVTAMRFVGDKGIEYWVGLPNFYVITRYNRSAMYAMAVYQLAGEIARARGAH
UniProt Q9HXN1, residues 33-490: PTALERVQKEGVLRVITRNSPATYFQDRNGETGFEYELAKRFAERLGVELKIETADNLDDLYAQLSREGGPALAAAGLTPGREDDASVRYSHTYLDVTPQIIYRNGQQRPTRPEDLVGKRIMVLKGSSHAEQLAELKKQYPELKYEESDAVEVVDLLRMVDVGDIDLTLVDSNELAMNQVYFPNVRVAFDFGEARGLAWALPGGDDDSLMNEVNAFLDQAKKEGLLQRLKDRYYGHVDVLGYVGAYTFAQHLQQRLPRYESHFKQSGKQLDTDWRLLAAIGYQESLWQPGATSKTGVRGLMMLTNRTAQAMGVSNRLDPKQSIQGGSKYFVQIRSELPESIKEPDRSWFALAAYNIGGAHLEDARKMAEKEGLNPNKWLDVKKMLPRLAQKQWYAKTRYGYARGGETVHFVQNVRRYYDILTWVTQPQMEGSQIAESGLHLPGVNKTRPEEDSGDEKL
UniProt Q9HU67: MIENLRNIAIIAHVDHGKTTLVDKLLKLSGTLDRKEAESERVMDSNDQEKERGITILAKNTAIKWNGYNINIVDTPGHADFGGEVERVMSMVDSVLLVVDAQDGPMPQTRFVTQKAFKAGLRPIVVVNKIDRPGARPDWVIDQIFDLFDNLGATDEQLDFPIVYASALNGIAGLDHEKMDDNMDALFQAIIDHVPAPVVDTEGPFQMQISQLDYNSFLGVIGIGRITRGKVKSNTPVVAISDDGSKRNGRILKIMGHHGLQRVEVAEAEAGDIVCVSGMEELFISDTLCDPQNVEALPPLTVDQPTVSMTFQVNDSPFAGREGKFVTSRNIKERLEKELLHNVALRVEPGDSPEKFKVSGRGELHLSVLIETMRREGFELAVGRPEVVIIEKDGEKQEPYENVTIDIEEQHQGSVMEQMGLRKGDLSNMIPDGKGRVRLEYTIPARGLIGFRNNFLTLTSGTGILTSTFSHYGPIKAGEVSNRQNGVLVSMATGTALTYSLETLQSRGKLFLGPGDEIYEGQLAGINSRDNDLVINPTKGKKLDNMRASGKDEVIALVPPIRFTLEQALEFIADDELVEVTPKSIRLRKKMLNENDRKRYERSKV

Assays:
[1] = biological target: SltB2, N-terminal His-tagged construct (P. aeruginosa) (UniProt Q9I4G6); test: affinity purification with mass spectrometry; N-terminally His-tagged LT on Ni-NTA resin incubated with the soluble or the 0.5% NP-40-solubilised membrane proteome of P. aeruginosa PAO1, 4 °C overnight; eluted with 500 mM imidazole; no cross-linker; only the target purified
[2] = biological target: SltB1, N-terminal His-tagged construct (P. aeruginosa) (UniProt Q9HX24); test: as above

Substance | binding [1] | binding [2]
MltF (from UniProt Q9HXN1 33-490) | binds | binds
PA3999 (from UniProt G3XD74) |  | binds
TypA (from UniProt Q9HU67) | binds | binds

No constants are given. Whether binding was seen depends on the method and setting. In cells and extracts the contact can be indirect. A yes stands for co-enrichment or nearness to the bait. Other partners may have been found.
